The campaign covered roughly 400,000 compounds. About 13,000 (3.2%) were called active. The inconclusive results got no clear call from the source; some entries with a clear call stand among them for comparison. Calls come from the whole dose curve; as a rule, active = well fitted cell-killing curve with a large enough effect; inconclusive = small, poorly fitted or top-dose-only effect, or effect the other way; inactive = flat fitted curve, though single readings scatter. Potencies beside an inconclusive call are fits to weak or partial responses and may not hold up.
Experiment: qHTS assay for MDR1-selective chemotherapeutics: Primary screen using the drug-selected MDR subline cells KB-V1; note: nearly all actives have a fitted effect of over 60% in size
Details: KB-V1 MDR cells viability, CellTiter-Glo, 72 h; activity change, negative = cytotoxicity: at 46.1 µM (top of the series)
In short: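 KB-V1 MDR subline cells in DMEM (phenol-red free, 10% FBS) exposed to compounds in qHTS concentration series for 72 h at 37 degrees C. Viability read by CellTiter-Glo luminescence; concentration-effect curves fitted after normalization and correction.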
% is set by controls: 0 for no effect and ±100 for the full control effect; potency is the fitted concentration of half-maximal effect.

Row | Compound | Potency | activity change, negative = cytotoxicity
1 | O=C(CSc1nc2ccccc2o1)c1ccccc1 | inconclusive: 11.6 µM [rising, partial curve, poor fit] | 
2 | CCN1CCN(C(=O)Cn2cnc3sc(C)c(S(=O)(=O)N4CCN(c5ncccn5)CC4)c3c2=O)CC1 | inconclusive: 29.1 µM [rising, single point] | 
3 | Cc1ccn2c(NC(C)(C)C)c(-c3cccs3)nc2c1 | inconclusive: 14.6 µM [cytotoxic, partial curve] | 
4 | CC(=O)N1c2ccc(S(=O)(=O)N(C)CC(=O)N(C)Cc3ccccc3)cc2CC1C (configuration not stated) | inconclusive: 4.11 µM [cytotoxic, full curve] | 
5 | Cc1ccc(CNC(=O)CN2C(=O)CSc3ccc(S(=O)(=O)N4CCC(C)CC4)cc32)cc1 | inconclusive: 18.4 µM [cytotoxic, single point] | 
6 | CSc1ccc(Cn2c(C)c(C(=O)NCc3ccco3)sc2=O)cc1 | inconclusive: 20.6 µM [cytotoxic, partial curve] | 
7 | O=C(CCC(=O)c1cccs1)OCC(=O)N1CCN(S(=O)(=O)c2ccccc2)CC1 | inconclusive: 20.6 µM [rising, single point] | 
8 | COc1ccc(-c2coc3c(C(=O)NC4CCCCC4)cccc23)c(C)c1 | inconclusive: 8.2 µM [cytotoxic, partial curve] | 
9 | O=C(c1cccc(Oc2c(Cl)cccc2[N+](=O)[O-])c1)N1CCCCC1 |  | inactive: -9.01%
10 | COc1cc(CNC[C@H]2O[C@@H](n3cc(C)c(=O)[nH]c3=O)C[C@@H]2O)ccc1OCc1cccc(Cl)c1 |  | inconclusive: 63%
11 | COC(=O)c1ccc2nc(NC(=O)C(C)(C)C)sc2c1 | inconclusive: 11.6 µM [cytotoxic, partial curve] | 
12 | COc1cccc(-c2nc(NC3CCCC3)c3ccccc3n2)c1O |  | inactive: -1.07%
13 | C=CCN(Cc1cn(C)nc1-c1cccc(Cl)c1)C1CCS(=O)(=O)C1 (configuration not stated) |  | inactive: 0%
14 | CCN(CC(=O)NC(C)(C)C)Cc1nc2c(Br)cc(Br)cc2c(=O)[nH]1 | inconclusive: 5.17 µM [cytotoxic, partial curve] | 
15 | CCOc1cc(/C=C2\C(=O)N(Cc3ccc(C)cc3)C(C)=C2C(=O)OC)ccc1O | inconclusive: 7.31 µM [cytotoxic, full curve, poor fit] | 
16 | COc1ccc(Cn2ccnc2SCC(=O)Nc2ccccc2OC)cc1 | inconclusive: 8.2 µM [cytotoxic, partial curve] | 
17 | COC(=O)N/N=C/c1c(C)nn(-c2cccc(Cl)c2)c1Cl | inconclusive: 13 µM [cytotoxic, partial curve] | 
18 | COc1cc(SC)ccc1C(=O)Nc1cc(C)c(OCC(=O)N2CCOCC2)c(C)c1 | inconclusive: 32.6 µM [cytotoxic, single point] | 
19 | Cc1ccc(NC(=O)COC(=O)Cc2csc(-c3cccc(F)c3)n2)cc1C | inconclusive: 20.6 µM [rising, partial curve, poor fit] | 
20 | C=CC(=O)Nc1ccc(CN2C(=O)N(c3c(Cl)c(OC)cc(OC)c3Cl)Cc3cnc(NCCCCN(CC)CC)nc32)cc1 |  | inactive: -25.7%
21 | COC(=O)c1sc(NC(=O)COc2ccccc2OC)nc1C | inconclusive: 13 µM [cytotoxic, partial curve, poor fit] | 
22 | COC(=O)c1ccc(C(=O)OC)c(NC(=S)N2CCN(c3ccc(F)cc3)CC2)c1 | inconclusive: 29.1 µM [cytotoxic, single point] | 
23 | CN(Cc1ccc(Cl)c(Cl)c1)C(=O)CN1C(=O)NC2(CCCC2)C1=O |  | inactive: -3.69%

Row | Compound | Potency | activity change, negative = cytotoxicity
24 | CC(NC(=O)Cc1ccsc1)c1ccc(F)cc1 (configuration not stated) |  | inactive: 5.79%
25 | N=c1c2c(ncn1CCCO)Oc1c(ccc3ccccc13)C2c1ccccc1 (configuration not stated) | active: 16.4 µM | 
26 | COc1ccc(CCNC(=O)c2ccc(CS(=O)(=O)Cc3ccc(C)cc3)o2)cc1OC | inconclusive: 25.9 µM [cytotoxic, partial curve, poor fit] | 
27 | COc1cccc(CNC(=O)C2CCN(S(=O)(=O)c3ccc4c(c3)CCCN4C(C)=O)CC2)c1 |  | inconclusive: -6.39%
28 | COCCNC(=O)C(c1ccncc1)N(Cc1ccccc1)C(=O)Cn1nnc2ccccc21 (configuration not stated) |  | inactive: 15.1%
29 | CSCCOC(=O)c1[nH]c2c(c1C)C(=O)CC(c1ccco1)C2 (configuration not stated) | inconclusive: 2.91 µM [cytotoxic, full curve, poor fit] | 
30 | CCCCN1C(=O)c2ccc(C(=O)OCC(=O)N3CCN(c4ccccc4)CC3)cc2C1=O |  | inactive: 0%
31 | COc1ccccc1NS(=O)(=O)c1ccc(NN=C2CCCC2)c([N+](=O)[O-])c1 | active: 2.91 µM | 
32 | OCc1ccccc1SSc1ccccc1CO | inconclusive: 32.6 µM [cytotoxic, single point] | 
33 | Cc1cc(C)n2nc(SCC(=O)N3CCCC(C)C3)nc2n1 (configuration not stated) |  | inactive: 11.7%
34 | CCCCOc1cc(C(=O)NCCN(CC)CC)c2ccccc2n1 | inconclusive: 13 µM [cytotoxic, partial curve] | 
35 | O=C(NCCc1c[nH]c2ccccc12)C(=O)NCC(c1ccco1)N1CCN(c2ccccc2)CC1 (configuration not stated) | inconclusive: 5.17 µM [cytotoxic, full curve] | 
36 | CCN(Cc1cccs1)C(=O)CN1CCN(S(=O)(=O)c2ccc3c(c2)OCCCO3)CC1 | inconclusive: 4.11 µM [cytotoxic, partial curve, poor fit] | 
37 | O=C(Nc1ccccc1)N1CCCN(c2ccc(C(F)(F)F)cc2[N+](=O)[O-])CC1 | inconclusive: 20.6 µM [cytotoxic, single point] | 
38 | CC(=O)c1ccc(NC(=O)COC(=O)c2ccccc2N=Nc2ccc(N(C)C)cc2)cc1 | inconclusive: 20.6 µM [cytotoxic, partial curve, poor fit] | 
39 | Cc1ccc(NC(=O)/C=C/c2ccc(Cl)cc2)nc1 |  | inactive: -29.9%
40 | Cc1cccc(OC(C)C(=O)Nc2nc(-c3cccnc3)cs2)c1 (configuration not stated) | inconclusive: 8.2 µM [cytotoxic, partial curve] | 
41 | O=C(NC1(C(F)(F)F)NC(=O)N(Cc2ccccc2)C1=O)c1cccnc1 (configuration not stated) |  | inconclusive: 37%
42 | Cn1c(N)c(C(=O)COC(=O)/C=C/c2cccc(Cl)c2)c(=O)n(C)c1=O |  | inactive: -12.5%
43 | C=CCN(C(=O)c1csnn1)C(C(=O)NC1CCCCC1)c1ccc(F)cc1 (configuration not stated) |  | inactive: -26.6%
44 | COc1ccc(-c2nnc(SCC(=O)N/N=C/c3ccccc3C(=O)O)n2-c2ccccc2)cc1 | inconclusive: 0.411 µM [cytotoxic, full curve, poor fit] | 
45 | COc1ccc(CN2CC[C@H]3C=CC[C@@H](C(=O)NCCc4ccccc4)[C@H]3C2=O)cc1OC | inconclusive: 8.2 µM [cytotoxic, partial curve] | 
46 | O=C(c1cc2sccc2n1Cc1ccc(F)cc1)N1CCN(c2nc3ccccc3s2)CC1 | inconclusive: 2.91 µM [cytotoxic, full curve] | 

Of the compounds above, these contain four or more nitrogen atoms:
Row | Compound | Potency | activity change, negative = cytotoxicity
2 | CCN1CCN(C(=O)Cn2cnc3sc(C)c(S(=O)(=O)N4CCN(c5ncccn5)CC4)c3c2=O)CC1 | inconclusive: 29.1 µM [rising, single point] | 
14 | CCN(CC(=O)NC(C)(C)C)Cc1nc2c(Br)cc(Br)cc2c(=O)[nH]1 | inconclusive: 5.17 µM [cytotoxic, partial curve] | 
17 | COC(=O)N/N=C/c1c(C)nn(-c2cccc(Cl)c2)c1Cl | inconclusive: 13 µM [cytotoxic, partial curve] | 
20 | C=CC(=O)Nc1ccc(CN2C(=O)N(c3c(Cl)c(OC)cc(OC)c3Cl)Cc3cnc(NCCCCN(CC)CC)nc32)cc1 |  | inactive: -25.7%
28 | COCCNC(=O)C(c1ccncc1)N(Cc1ccccc1)C(=O)Cn1nnc2ccccc21 (configuration not stated) |  | inactive: 15.1%
31 | COc1ccccc1NS(=O)(=O)c1ccc(NN=C2CCCC2)c([N+](=O)[O-])c1 | active: 2.91 µM | 
33 | Cc1cc(C)n2nc(SCC(=O)N3CCCC(C)C3)nc2n1 (configuration not stated) |  | inactive: 11.7%
35 | O=C(NCCc1c[nH]c2ccccc12)C(=O)NCC(c1ccco1)N1CCN(c2ccccc2)CC1 (configuration not stated) | inconclusive: 5.17 µM [cytotoxic, full curve] | 
37 | O=C(Nc1ccccc1)N1CCCN(c2ccc(C(F)(F)F)cc2[N+](=O)[O-])CC1 | inconclusive: 20.6 µM [cytotoxic, single point] | 
38 | CC(=O)c1ccc(NC(=O)COC(=O)c2ccccc2N=Nc2ccc(N(C)C)cc2)cc1 | inconclusive: 20.6 µM [cytotoxic, partial curve, poor fit] | 
41 | O=C(NC1(C(F)(F)F)NC(=O)N(Cc2ccccc2)C1=O)c1cccnc1 (configuration not stated) |  | inconclusive: 37%
43 | C=CCN(C(=O)c1csnn1)C(C(=O)NC1CCCCC1)c1ccc(F)cc1 (configuration not stated) |  | inactive: -26.6%
44 | COc1ccc(-c2nnc(SCC(=O)N/N=C/c3ccccc3C(=O)O)n2-c2ccccc2)cc1 | inconclusive: 0.411 µM [cytotoxic, full curve, poor fit] | 
46 | O=C(c1cc2sccc2n1Cc1ccc(F)cc1)N1CCN(c2nc3ccccc3s2)CC1 | inconclusive: 2.91 µM [cytotoxic, full curve] | 

Next compounds follow.

Row | Compound | Potency | activity change, negative = cytotoxicity
47 | CCN(CC)CCCN=Cc1c(O)n(Cc2ccccc2)c(=O)c2ccccc12 | inconclusive: 5.17 µM [cytotoxic, partial curve, poor fit] | 
48 | O=C(CCc1nc2ccccc2c(=O)[nH]1)NCc1cccc(Cl)c1 |  | inactive: -26.2%
49 | Cc1ccc(S(=O)(=O)N(C)C)cc1NC(=O)CSc1nc2ccccc2c(=O)n1CC1CCCO1 (configuration not stated) | inconclusive: 5.8 µM [cytotoxic, partial curve] | 
50 | Cc1ccc(C)c(SCC(=O)Nc2nnc(-c3ccccc3)o2)c1 | inconclusive: 35.5 µM [cytotoxic, single point] | 
51 | COc1cc(CC(=O)Nc2ccc3c(c2)CCC3)cc(OC)c1OC | inconclusive: 14.6 µM [cytotoxic, partial curve] | 
52 | COC(=O)[C@H](CC(C)C)NS(=O)(=O)NC(=O)OC(C)(C)C |  | inactive: -1.46%
53 | CC(=O)OCC(=O)[C@@]1(O)CC[C@H]2[C@@H]3CCC4=CC(=O)C=C[C@]4(C)[C@H]3C(=O)C[C@@]21C |  | inactive: -2.71%
54 | C[C@@H]1CN([C@H](C)CO)S(=O)(=O)c2ccc(Br)cc2O[C@H]1CN(C)C(=O)Nc1ccccc1 |  | inconclusive: 42.1%
55 | O=C(NS(=O)(=O)Nc1ccc(Cl)cc1)c1c[nH]c2ccccc12 |  | inconclusive: -2.88%
56 | O=C(Nc1ccccc1Cl)N1CCN(Cc2ccc3c(c2)OCO3)CC1 |  | inactive: -24.9%
57 | O=S(=O)(c1ccc(NC(=S)NCc2cccnc2)cc1)N1CCCCC1 |  | inactive: 6.91%
58 | Cc1nn(Cc2ccccc2)c(Cl)c1C(=O)OC(C)C#N (configuration not stated) | inconclusive: 32.6 µM [cytotoxic, partial curve, poor fit] | 
59 | Cc1ccc2ncc(C(=O)Nc3ccc(OC(F)(F)F)cc3)c(=O)n2c1 | inconclusive: 18.4 µM [rising, single point] | 
60 | O=C(Nc1nc(-c2ccccn2)cs1)c1ccc([N+](=O)[O-])o1 |  | inactive: -3.51%
61 | CCOc1ccc(S(=O)(=O)N(C)c2ccc(OCC(=O)NCc3cccnc3)cc2)cc1 | inconclusive: 29.1 µM [cytotoxic, single point] | 
62 | CC1(C(=O)NCc2cccc3ccccc23)CCN1Cc1cccc2c1OCO2 (configuration not stated) | inconclusive: 16.4 µM [cytotoxic, partial curve, poor fit] | 
63 | Cc1ccc(C)c2[nH]c(=O)c(C(c3nnnn3Cc3ccco3)N3CCc4ccccc4C3)cc12 (configuration not stated) | inconclusive: 13 µM [cytotoxic, partial curve] | 
64 | O=C(Nc1ccc(Cl)cn1)c1ccc2c(c1)OCCO2 | inconclusive: 29.1 µM [cytotoxic, single point] | 
65 | CC(=O)n1cc(-c2ccncc2)c2ccccc21 | inconclusive: 29.1 µM [cytotoxic, single point] | 
66 | COc1cc(/C=N/NC(=O)c2cccc(NC(=O)c3ccccc3C)c2)ccc1O | inconclusive: 14.6 µM [rising, single point] | 
67 | COc1cc(C(=O)Nc2ccccc2C(=O)NCc2cccnc2)cc(OC)c1OC | inconclusive: 14.6 µM [cytotoxic, partial curve, poor fit] | 
